Values of other authors as cited in US12018011B2, “Macrocyclic compounds and compositions, and methods of preparing and using the same” (Kura Oncology, Inc., priority 2021, dated 2024).
At least one structure is not confirmed: it was looked up by name or label, or the drawing left a doubt.

How the values were obtained:
[1] = system: HRAS mutant metastatic urothelial carcinoma; conditions: HRAS mutant metastatic urothelial carcinoma patients treated with tipifarnib; cited from earlier work
[2] = system: recurrent/metastatic salivary gland tumors (SGT); conditions: of 13 pts with recurrent/metastatic salivary gland tumors treated with tipifarnib; cited from earlier work

Cn1cncc1[C@@](N)(c1ccc(Cl)cc1)c1ccc2c(c1)c(-c1cccc(Cl)c1)cc(=O)n2C [Tipifarnib, tipifarnib, reference compound]
patients who experienced an objective response [1]: 24% | patients who experienced an objective response [2]: one | patients with stable disease as best response [2]: seven
